Results reported in article doi:10.1101/2024.11.12.621593.
These are yes or no findings as the source states them, for the method shown. Binding seen in cells or lysates may run through a third protein. Some results given as binding are weak or reduced against the parent protein; the word gives no strength.

Amino acid sequences for entries named in this document (tags omitted). A change or cut given only in a name is not applied to a line headed by its entry.
UniProt Q8IY92: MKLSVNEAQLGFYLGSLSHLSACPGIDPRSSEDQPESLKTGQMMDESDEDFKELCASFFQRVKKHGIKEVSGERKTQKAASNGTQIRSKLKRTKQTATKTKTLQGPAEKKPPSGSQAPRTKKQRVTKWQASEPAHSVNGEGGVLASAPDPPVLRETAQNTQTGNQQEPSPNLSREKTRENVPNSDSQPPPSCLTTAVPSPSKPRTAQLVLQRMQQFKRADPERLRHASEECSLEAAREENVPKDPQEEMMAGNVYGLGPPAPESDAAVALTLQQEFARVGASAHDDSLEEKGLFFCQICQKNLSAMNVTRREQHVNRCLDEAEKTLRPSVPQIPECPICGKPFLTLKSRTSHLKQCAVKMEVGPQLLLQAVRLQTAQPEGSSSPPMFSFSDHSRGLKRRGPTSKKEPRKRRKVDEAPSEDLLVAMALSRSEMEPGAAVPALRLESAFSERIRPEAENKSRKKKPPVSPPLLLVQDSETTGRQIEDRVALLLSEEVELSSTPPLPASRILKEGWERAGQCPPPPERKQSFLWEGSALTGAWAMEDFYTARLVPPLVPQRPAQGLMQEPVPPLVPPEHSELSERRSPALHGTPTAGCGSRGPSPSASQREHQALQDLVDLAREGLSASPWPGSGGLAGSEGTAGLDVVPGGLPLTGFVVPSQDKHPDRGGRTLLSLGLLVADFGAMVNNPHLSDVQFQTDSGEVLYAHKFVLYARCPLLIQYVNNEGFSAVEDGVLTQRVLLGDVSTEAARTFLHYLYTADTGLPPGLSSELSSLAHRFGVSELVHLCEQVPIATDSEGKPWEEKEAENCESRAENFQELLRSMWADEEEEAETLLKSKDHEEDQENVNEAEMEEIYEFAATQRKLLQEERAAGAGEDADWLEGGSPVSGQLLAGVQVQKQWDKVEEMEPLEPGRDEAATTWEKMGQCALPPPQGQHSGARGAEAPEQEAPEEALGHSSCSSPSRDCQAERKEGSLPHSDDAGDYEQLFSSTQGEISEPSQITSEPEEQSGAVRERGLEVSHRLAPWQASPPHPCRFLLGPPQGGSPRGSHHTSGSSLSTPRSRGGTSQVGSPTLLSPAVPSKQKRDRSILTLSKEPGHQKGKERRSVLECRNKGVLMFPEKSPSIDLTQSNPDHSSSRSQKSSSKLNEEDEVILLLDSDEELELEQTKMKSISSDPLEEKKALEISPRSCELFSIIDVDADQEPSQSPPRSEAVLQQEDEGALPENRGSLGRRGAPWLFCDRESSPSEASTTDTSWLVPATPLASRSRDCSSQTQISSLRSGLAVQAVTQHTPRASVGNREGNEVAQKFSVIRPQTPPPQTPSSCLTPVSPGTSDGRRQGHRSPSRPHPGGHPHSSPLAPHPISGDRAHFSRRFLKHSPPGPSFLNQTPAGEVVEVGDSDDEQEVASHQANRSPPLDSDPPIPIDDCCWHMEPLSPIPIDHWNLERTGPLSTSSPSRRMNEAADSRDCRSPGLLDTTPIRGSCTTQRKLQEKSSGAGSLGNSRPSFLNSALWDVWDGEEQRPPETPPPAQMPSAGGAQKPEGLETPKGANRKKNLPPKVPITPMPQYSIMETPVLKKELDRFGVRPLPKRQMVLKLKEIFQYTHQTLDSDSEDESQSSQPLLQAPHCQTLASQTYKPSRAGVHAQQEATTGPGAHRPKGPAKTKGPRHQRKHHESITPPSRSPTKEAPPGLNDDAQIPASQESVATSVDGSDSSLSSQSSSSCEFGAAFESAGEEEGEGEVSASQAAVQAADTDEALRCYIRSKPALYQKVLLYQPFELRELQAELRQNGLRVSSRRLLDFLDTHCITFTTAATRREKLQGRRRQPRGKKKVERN
UniProt Q92547: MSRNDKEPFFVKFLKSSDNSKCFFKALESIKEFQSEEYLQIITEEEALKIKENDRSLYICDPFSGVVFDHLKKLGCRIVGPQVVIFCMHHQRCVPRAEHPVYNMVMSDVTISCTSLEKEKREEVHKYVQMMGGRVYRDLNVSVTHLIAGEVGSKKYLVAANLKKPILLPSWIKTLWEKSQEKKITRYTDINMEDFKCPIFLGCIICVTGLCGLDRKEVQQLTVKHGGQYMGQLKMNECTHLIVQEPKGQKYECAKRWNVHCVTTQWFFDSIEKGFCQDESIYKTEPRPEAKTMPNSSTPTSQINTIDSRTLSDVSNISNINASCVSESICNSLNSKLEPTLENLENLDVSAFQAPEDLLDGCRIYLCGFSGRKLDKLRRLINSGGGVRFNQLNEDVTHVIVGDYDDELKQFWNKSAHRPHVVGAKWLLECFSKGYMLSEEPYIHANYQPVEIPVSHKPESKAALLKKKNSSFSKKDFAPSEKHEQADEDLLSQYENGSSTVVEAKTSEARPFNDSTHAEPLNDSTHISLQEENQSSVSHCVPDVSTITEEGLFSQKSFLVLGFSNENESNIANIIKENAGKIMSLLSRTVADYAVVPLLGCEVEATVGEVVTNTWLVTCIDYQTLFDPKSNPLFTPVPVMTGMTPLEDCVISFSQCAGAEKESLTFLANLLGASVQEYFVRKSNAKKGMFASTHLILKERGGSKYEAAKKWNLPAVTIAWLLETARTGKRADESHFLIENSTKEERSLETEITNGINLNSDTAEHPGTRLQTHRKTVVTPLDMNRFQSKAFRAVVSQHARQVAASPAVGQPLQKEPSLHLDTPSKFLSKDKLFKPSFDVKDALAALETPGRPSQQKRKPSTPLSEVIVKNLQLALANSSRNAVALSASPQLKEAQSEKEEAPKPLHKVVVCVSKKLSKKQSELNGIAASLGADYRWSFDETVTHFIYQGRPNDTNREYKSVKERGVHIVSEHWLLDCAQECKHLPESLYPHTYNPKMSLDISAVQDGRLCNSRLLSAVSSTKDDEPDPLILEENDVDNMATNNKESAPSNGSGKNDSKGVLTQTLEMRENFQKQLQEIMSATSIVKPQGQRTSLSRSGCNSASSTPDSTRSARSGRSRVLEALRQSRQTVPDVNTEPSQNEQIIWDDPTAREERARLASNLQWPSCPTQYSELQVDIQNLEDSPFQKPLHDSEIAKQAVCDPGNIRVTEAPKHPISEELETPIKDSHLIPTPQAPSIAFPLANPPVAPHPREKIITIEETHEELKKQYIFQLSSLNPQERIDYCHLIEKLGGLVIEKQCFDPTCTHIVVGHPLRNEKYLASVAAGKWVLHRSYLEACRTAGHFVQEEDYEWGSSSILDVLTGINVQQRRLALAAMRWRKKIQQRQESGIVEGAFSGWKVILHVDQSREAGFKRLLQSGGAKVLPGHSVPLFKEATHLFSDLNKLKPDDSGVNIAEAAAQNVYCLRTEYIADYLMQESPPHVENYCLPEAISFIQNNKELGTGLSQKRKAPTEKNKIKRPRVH

Assays:
Experiment in all cases: co-IP
[1] = biological target: eGFP-SLX4 T1260A (human) (UniProt Q8IY92)
[2] = biological target: eGFP-TOPBP1 WT (human) (UniProt Q92547)
[3] = biological target: eGFP-TOPBP1 BRCT 1+2 (K155E +K250E) (human) (UniProt Q92547)
[4] = biological target: eGFP-SLX4 WT (human) (UniProt Q8IY92)

Binder	binding [1]	binding [2]	binding [3]	binding [4]
MUS81 (endogenous) (protein, UniProt Q96NY9 1-551) MAAPVRLGRKRPLPACPNPLFVRWLTEWRDEATRSRRRTRFVFQKALRSLRRYPLPLRSGKEAKILQHFGDGLCRMLDERLQRHRTSGGDHAPDSPSGENSPAPQGRLAEVQDSSMPVPAQPKAGGSGSYWPARHSGARVILLVLYREHLNPNGHHFLTKEELLQRCAQKSPRVAPGSARPWPALRSLLHRNLVLRTHQPARYSLTPEGLELAQKLAESEGLSLLNVGIGPKEPPGEETAVPGAASAELASEAGVQQQPLELRPGEYRVLLCVDIGETRGGGHRPELLRELQRLHVTHTVRKLHVGDFVWVAQETNPRDPANPGELVLDHIVERKRLDDLCSSIIDGRFREQKFRLKRCGLERRVYLVEEHGSVHNLSLPESTLLQAVTNTQVIDGFFVKRTADIKESAAYLALLTRGLQRLYQGHTLRSRPWGTPGNPESGAMTSPNPLCSLLTFSDFNAGAIKNKAQSVREVFARQLMQVRGVSGEKAAALVDRYSTPASLLAAYDACATPKEQETLLSTIKCGRLQRNLGPALSRTLSQLYCSYGPLT	binds	binds	binds	binds
ERCC1 (endogenous) (protein, UniProt P07992 1-297) MDPGKDKEGVPQPSGPPARKKFVIPLDEDEVPPGVAKPLFRSTQSLPTVDTSAQAAPQTYAEYAISQPLEGAGATCPTGSEPLAGETPNQALKPGAKSNSIIVSPRQRGNPVLKFVRNVPWEFGDVIPDYVLGQSTCALFLSLRYHNLHPDYIHGRLQSLGKNFALRVLLVQVDVKDPQQALKELAKMCILADCTLILAWSPEEAGRYLETYKAYEQKPADLLMEKLEQDFVSRVTECLTTVKSVNKTDSQTLLTTFGSLEQLIAASREDLALCPGLGPQKARRLFDVLHEPFLKVP	–	binds	–	binds
TOP3a (endogenous) (protein, UniProt Q13472 1-1001) MIFPVARYALRWLRRPEDRAFSRAAMEMALRGVRKVLCVAEKNDAAKGIADLLSNGRMRRREGLSKFNKIYEFDYHLYGQNVTMVMTSVSGHLLAHDFQMQFRKWQSCNPLVLFEAEIEKYCPENFVDIKKTLERETRQCQALVIWTDCDREGENIGFEIIHVCKAVKPNLQVLRARFSEITPHAVRTACENLTEPDQRVSDAVDVRQELDLRIGAAFTRFQTLRLQRIFPEVLAEQLISYGSCQFPTLGFVVERFKAIQAFVPEIFHRIKVTHDHKDGIVEFNWKRHRLFNHTACLVLYQLCVEDPMATVVEVRSKPKSKWRPQALDTVELEKLASRKLRINAKETMRIAEKLYTQGYISYPRTETNIFPRDLNLTVLVEQQTPDPRWGAFAQSILERGGPTPRNGNKSDQAHPPIHPTKYTNNLQGDEQRLYEFIVRHFLACCSQDAQGQETTVEIDIAQERFVAHGLMILARNYLDVYPYDHWSDKILPVYEQGSHFQPSTVEMVDGETSPPKLLTEADLIALMEKHGIGTDATHAEHIETIKARMYVGLTPDKRFLPGHLGMGLVEGYDSMGYEMSKPDLRAELEADLKLICDGKKDKFVVLRQQVQKYKQVFIEAVAKAKKLDEALAQYFGNGTELAQQEDIYPAMPEPIRKCPQCNKDMVLKTKKNGGFYLSCMGFPECRSAVWLPDSVLEASRDSSVCPVCQPHPVYRLKLKFKRGSLPPTMPLEFVCCIGGCDDTLREILDLRFSGGPPRASQPSGRLQANQSLNRMDNSQHPQPADSRQTGSSKALAQTLPPPTAAGESNSVTCNCGQEAVLLTVRKEGPNRGRQFFKCNGGSCNFFLWADSPNPGAGGPPALAYRPLGASLGCPPGPGIHLGGFGNPGDGSGSGTSCLCSQPSVTRTVQKDGPNKGRQFHTCAKPREQQCGFFQWVDENTAPGTSGAPSWTGDRGRTLESEARSKRPRASSSDMGSTAKKPRKCSLCHQPGHTRPFCPQNR	–	binds	–	–
